# Over roughly 33,000 sequences, “E-score (-0.5 to 0.5)” has its median near -0.016; the highest 2% begin near 0.3. Some of the results follow.
# Target: T1, Yer184c (UniProt P39961)
# T1 sequence: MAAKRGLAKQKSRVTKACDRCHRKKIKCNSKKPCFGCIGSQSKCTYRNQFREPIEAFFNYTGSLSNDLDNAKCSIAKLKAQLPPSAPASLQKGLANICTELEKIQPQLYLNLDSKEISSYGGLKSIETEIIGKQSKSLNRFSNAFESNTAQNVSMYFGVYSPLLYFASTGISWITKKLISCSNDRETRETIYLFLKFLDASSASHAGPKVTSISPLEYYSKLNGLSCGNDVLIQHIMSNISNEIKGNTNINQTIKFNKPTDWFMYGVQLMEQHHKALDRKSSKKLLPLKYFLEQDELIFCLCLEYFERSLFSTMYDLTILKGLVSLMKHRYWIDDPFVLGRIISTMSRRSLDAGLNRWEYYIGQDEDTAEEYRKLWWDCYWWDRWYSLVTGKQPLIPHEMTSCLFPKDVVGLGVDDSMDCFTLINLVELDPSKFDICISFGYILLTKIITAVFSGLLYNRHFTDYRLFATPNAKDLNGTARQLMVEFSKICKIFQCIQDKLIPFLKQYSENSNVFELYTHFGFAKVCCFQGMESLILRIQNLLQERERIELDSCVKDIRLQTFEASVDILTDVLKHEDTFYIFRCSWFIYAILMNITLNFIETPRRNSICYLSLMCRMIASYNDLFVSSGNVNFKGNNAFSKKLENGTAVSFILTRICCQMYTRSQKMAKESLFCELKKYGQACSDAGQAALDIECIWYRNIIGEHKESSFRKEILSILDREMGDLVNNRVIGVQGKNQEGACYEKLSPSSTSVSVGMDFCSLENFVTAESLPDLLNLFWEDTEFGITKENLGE
# Assay: PBM E-score (8-mer binding enrichment) (E-score (-0.5 to 0.5)); higher = stronger / more preferred TF binding
# Conditions: protein concentration: 100 nM; construct: GST-full length
# Method: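 Universal 'all 10-mer' protein binding microarrays (Agilent AMADID 015681) probed with GST-tagged S. cerevisiae TFs (full-length or DBD) made by in vitro transcription/translation (PURExpress), about 100-200 nM. Bound TF was detected with fluorescent anti-GST. Each ungapped 8-mer (which stands for itself and its reverse complement) is scored by the PBM enrichment score (E-score), a modified Wilcoxon-Mann-Whitney statistic from -0.5 to +0.5, computed with the Universal PBM Analysis Suite. Scale: above 0.35 generally sequence-specific binding.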
row,Sequence,PBM E-score
1,CATCCGTC,-0.0104
2,AGATTGCC,0.00777
3,CGACAATA,0.213
4,TCGCATAA,0.146
5,GTGATACA,0.0287
6,ATGCCTGA,-0.108
7,ATTAGCCC,-0.0368
8,CTCCCAAG,-0.0182
9,GTCCTTCA,0.0902
10,AATACAGT,0.0667
11,CTCACGTA,-0.112
12,CGAACGTC,-0.0167
13,AAAGGGTT,-0.104
14,AAGTTTAA,0.0658
15,GACCTGCA,-0.23
16,ACATACAA,0.0459
17,AAACCCTG,-0.06
18,CCCCAGCG,-0.297
19,CACTCGGG,0.0303
20,TACCCCAA,-0.211
21,AAAATTAG,0.227
22,AGGTGCTG,-0.0532
23,CATACAAA,0.251
24,AACGAGAC,-0.0699
25,CTCTAATA,0.116

row,Sequence,PBM E-score
1,ACCTCGTG,0.0639
2,AACAGCCA,0.0707
3,AAACTGAA,0.18
4,ACGACCGG,0.0371
5,AAGGGTTC,-0.192
6,ACTTATTG,-0.0498
7,ATTATGTG,0.0515
8,ATGTCGTC,-0.195
9,ACTTCGCC,0.0925
10,AAGGATAC,-0.0139
11,CGAGTTCA,0.0543
12,GGGCCTAA,-0.096
13,CCTTTACA,-0.0847
14,CCACGATA,0.0573
15,CTGACCAG,-0.0878
16,ATAGACGG,0.0173
17,AGCGAGAG,0.0132
18,AGTAGAGG,-0.25
19,TAACTGTA,-0.0459
20,GCCACGAC,-0.0252
21,AGTTACGC,-0.0915
22,ATTGGAAC,0.167
23,AATGACCT,-0.0871
24,CCATGGAA,-0.0496
25,GTGTGGAA,0.0192

# Looked up one by one from the entries so far:
row,Sequence,PBM E-score
10,AATACAGT,0.0667
13,CCTTTACA,-0.0847
9,ACTTCGCC,0.0925
25,CTCTAATA,0.116
3,AAACTGAA,0.18

# Remaining list, next part.

row,Sequence,PBM E-score
1,CTCTGTTA,-0.0157
2,CTACATCA,-0.0855
3,TAGTATCA,0.279
4,GAAAGGAA,0.124
5,AGGTGATG,-0.253
6,GCACTGTA,0.112
7,CGCTTCAC,-0.0514
8,GGGGAACA,-0.17
9,ATACCCGA,0.111
10,AGAGTAGG,-0.0378
11,ACTCTTGC,0.0195
12,CGACCCAA,-0.00796
13,GAATTGTC,-0.0406
14,ATCTGAGG,-0.076
15,CTCCCGCC,0.0349
16,ACGTTCTC,0.022
17,AGCAGAGG,-0.202
18,GTGGTTTA,-0.0674
19,CAGAGCGA,0.205
20,TTATTCAA,0.3
21,AGGGGCGA,-0.351
22,CCTCGCAA,-0.166
23,GCGCGCCA,0.145
24,ACATCTAA,0.00363
25,AACCCTCG,-0.0517

row,Sequence,PBM E-score
1,AGTCAAAT,-0.0729
2,ATGATAGG,-0.0453
3,AGGGTCCA,-0.124
4,GCATACGC,-0.0872
5,AGCAGTAA,-0.0259
6,AGGAAACG,-0.107
7,CCCGTAAC,0.0683
8,TGAGGCAA,-0.0663
9,ACTCTATG,-0.164
10,ACGGTCAG,-0.0874
11,CTCCGGAG,0.416
12,ACATTGAG,-0.0299
13,GACTTAGA,-0.081
14,TTACATAA,0.141
15,CACCCTTC,-0.218
16,CAACAAAA,0.251
17,CAGTTACG,-0.14
18,TCCAGAAA,-0.0281
19,ATGCTATC,-0.0729
20,CTAAGTGA,0.0817
21,ACTGTGAA,0.14
22,GGTGAGAA,0.141
23,CACTTGCA,-0.0519
24,CAAGGCGA,-0.184
25,ACTCGATC,-0.00141

# Looked up above:
# ACTCGATC – PBM E-score: -0.00141
# GCATACGC – PBM E-score: -0.0872

# Additional entries follow.

row,Sequence,PBM E-score
1,ACCGGCAA,0.222
2,GACGACAC,-0.0847
3,CAGATGAA,-0.0856
4,AACAGCCG,0.107
5,ACAGCATA,0.078
6,AGTTTACC,0.136
7,CCTAGGCC,-0.229
8,CAAAGGGG,-0.23
9,AGATTCAG,0.0599
10,AGCCAGCG,-0.221
11,CGGAGTGA,0.153
12,ACTCTCCT,-0.169
13,AATGTCAG,-0.0883
14,CAAAGATC,0.154
15,ACTCTCTA,-0.166
16,GCCGACGC,0.18
17,ATGCATCA,0.302
18,AAACGCCC,-0.106
19,CACAACTC,0.0365
20,CAAACAAG,0.0388
21,GCATCTCA,0.0266
22,ATACAAGG,0.0668
23,CTTTATCA,0.142
24,GCAGCGCA,-0.187
25,ACTTAACA,-0.00053

row,Sequence,PBM E-score
1,AGCTCACG,-0.0984
2,ACAAAGCA,0.288
3,CGCTACAC,-0.235
4,ATACCTGC,-0.23
5,CCATTCAA,0.136
6,AGCTAATG,-0.0806
7,ATCGTAAT,-0.0295
8,CGAGACAA,-0.0254
9,CACTATAC,-0.0342
10,GGAGACAC,-0.0444
11,AATGTGTA,-0.0922
12,AGGGACGG,-0.32
13,CGCCGCGC,0.0984
14,TATCGCAA,0.00896
15,CAGAAGCC,-0.0533
16,GAGTGAAC,0.0123
17,ATCCTAAT,0.108
18,ACCCAGCA,-0.121
19,ATCATCTA,0.00667
20,CCTTGTTC,-0.0393
21,CACCCAGA,-0.0698
22,CATTGGCG,-0.163
23,ATAGTGAC,-0.0492
24,GCAGCGAA,0.128
25,ATTCTAGG,0.0213

row,Sequence,PBM E-score
1,AGGAACAG,-0.19
2,CTACAGAC,-0.202
3,ATCAAATA,0.0663
4,ATGTTTTC,0.233
5,GATGTGCA,-0.157
6,ATGGTTGC,-0.247
7,ATGACGTA,-0.0538
8,CAAGAACG,0.084
9,CCGCGGAC,0.295
10,ATTGGCCC,-0.269
11,AACTTAAA,0.157
12,ATACTACA,0.153
13,CACCAGCG,-0.246
14,AATGAGAG,-0.199
15,AACACTGT,-0.00284
16,AACGTTTC,0.153
17,CAGTAAAG,-0.177
18,GGACGACA,0.131
19,CGCAGAAA,0.0456
20,GGTAGTGA,-0.0712
21,TCGTCTCA,-0.0379
22,GCATTCGA,-0.132

# From the supplement of paper PMC3334620
